Four molecules from publication PMC6072441 can be followed below.

Sequences of proteins named here, by UniProt entry; tags and fusion partners are left off.
UniProt O09106: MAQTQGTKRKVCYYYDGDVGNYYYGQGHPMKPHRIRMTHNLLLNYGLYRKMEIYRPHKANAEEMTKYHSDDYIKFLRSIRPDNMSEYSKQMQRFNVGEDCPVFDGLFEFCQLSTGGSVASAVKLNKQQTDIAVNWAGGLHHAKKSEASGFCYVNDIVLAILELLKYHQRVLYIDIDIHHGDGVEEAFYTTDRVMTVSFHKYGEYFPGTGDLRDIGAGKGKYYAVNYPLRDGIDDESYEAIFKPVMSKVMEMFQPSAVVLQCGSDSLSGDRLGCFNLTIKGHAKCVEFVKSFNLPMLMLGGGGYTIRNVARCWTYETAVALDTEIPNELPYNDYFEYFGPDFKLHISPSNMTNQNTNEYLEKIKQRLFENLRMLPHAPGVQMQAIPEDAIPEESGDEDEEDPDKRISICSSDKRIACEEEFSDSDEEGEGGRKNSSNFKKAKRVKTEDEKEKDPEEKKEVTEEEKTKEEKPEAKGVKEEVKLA
UniProt P70288: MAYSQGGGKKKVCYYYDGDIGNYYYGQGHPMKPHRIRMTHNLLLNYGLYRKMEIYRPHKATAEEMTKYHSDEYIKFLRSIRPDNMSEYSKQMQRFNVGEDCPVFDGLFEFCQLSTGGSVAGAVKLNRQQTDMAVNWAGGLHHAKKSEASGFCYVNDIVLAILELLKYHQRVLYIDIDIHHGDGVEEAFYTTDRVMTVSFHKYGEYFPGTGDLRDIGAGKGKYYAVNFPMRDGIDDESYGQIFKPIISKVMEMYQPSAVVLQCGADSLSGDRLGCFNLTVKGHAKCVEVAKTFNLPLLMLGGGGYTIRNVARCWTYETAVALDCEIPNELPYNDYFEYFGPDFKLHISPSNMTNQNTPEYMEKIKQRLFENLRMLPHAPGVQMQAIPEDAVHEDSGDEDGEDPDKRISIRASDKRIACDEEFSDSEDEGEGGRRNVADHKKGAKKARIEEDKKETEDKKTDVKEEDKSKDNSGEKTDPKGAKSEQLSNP

No constants are given. Whether binding was seen depends on the method and setting. In cells and extracts the contact can be indirect. Some entries that bind do so weakly or less than the wild type. For part of these data: Where a sequence is shown, tags or fusion partners need not be part of it.

Experiment [1] has as its target T1, Fam60a-Venus fusion protein (mouse) (UniProt Q8C8M1).
T1 sequence: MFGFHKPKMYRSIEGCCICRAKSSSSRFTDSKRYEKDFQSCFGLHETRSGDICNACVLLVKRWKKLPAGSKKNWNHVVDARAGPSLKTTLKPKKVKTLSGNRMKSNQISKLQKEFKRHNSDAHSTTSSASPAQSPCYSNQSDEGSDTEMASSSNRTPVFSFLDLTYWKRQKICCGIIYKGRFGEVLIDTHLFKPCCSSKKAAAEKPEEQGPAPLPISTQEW
Description: co-IP; nuclear extracts (RIPA buffer) of E10.5 WT embryos precipitated with bead-coupled anti-Fam60a, or of E10.5 Fam60a::Venus embryos with anti-GFP; control rabbit IgG; immunoblot for Sin3a, Hdac1, Hdac2. On the technique in general: A western blot detects proteins with antibodies after separation by electrophoresis.

The target in experiment [2] is T2, Fam60a (mouse (endogenous in E10.5 embryos and P19 cells)) (UniProt Q8C8M1).
T2 sequence: T1 sequence
The experiment is described as above.

The target in experiment [3] is T3, Sin3a (mouse (endogenous in E10.5 embryos, P19 cells and ES cells)) (UniProt Q60520).
T3 sequence: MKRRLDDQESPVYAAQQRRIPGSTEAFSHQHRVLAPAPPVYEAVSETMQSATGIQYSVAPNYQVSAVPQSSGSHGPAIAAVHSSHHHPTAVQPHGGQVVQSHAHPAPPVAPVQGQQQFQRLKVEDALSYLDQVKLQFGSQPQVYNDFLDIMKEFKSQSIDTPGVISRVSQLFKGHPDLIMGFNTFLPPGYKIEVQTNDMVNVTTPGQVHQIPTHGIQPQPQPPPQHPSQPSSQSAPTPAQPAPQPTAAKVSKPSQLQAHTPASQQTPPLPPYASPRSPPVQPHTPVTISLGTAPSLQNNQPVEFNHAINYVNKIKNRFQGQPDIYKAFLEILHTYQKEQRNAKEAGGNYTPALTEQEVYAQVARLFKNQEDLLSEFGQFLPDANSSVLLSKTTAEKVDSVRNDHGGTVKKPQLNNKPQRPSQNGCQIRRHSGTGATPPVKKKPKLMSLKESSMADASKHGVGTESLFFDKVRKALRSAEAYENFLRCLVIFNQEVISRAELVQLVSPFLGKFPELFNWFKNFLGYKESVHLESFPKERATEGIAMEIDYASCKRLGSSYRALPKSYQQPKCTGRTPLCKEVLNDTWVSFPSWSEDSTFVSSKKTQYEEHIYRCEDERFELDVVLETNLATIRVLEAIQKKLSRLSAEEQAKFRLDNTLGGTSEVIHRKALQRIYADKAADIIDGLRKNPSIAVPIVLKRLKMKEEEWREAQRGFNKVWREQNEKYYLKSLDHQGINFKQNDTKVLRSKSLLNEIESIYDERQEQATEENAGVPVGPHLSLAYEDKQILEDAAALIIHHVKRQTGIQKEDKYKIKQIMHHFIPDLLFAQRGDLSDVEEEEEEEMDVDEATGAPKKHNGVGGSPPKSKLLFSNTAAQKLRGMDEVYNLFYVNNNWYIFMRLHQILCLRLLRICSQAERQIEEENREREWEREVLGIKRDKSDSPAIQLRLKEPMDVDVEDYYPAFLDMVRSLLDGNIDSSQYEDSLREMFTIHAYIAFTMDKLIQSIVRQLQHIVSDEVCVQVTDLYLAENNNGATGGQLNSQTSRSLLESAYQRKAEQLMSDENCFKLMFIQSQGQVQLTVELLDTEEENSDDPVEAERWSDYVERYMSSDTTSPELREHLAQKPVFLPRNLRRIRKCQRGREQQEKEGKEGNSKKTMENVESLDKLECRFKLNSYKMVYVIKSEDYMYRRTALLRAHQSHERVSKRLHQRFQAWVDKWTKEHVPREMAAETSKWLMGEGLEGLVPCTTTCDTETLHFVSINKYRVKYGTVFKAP
Description: co-IP; nuclear extracts of Fam60a flox/– and Fam60a –/– ES cells precipitated with antibodies to Sin3a; silver staining and immunoblot.

Experiment [4] has as its target T2, Fam60a (mouse (endogenous in E10.5 embryos and P19 cells)). Description: co-IP; nuclear extracts (RIPA buffer) of undifferentiated P19 cells precipitated with bead-coupled anti-Fam60a; immunoblot for Sin3a, Hdac1, Hdac2.
Experiment [5] has as its target T1, Fam60a-Venus fusion protein (mouse). The experiment in a line: co-IP; nuclear extracts of E10.5 Fam60a-Venus transgenic embryos prepared with RIPA buffer or buffer C, precipitated with antibodies to GFP or control IgG; immunoblot for Ing2.

With “Hdac1 (from UniProt O09106 1-482) (enzyme)”, the binding entry in experiment [1], in experiment [2], in experiment [3] and in experiment [4] was “binds” in each case.

As for “Hdac2 (from UniProt P70288 1-488) (enzyme)”, in experiment [3], the binding entry is given as “binds”.

B1: Sin3a (protein, UniProt Q60520 1-1274)
chain: T3 sequence
For B1, the binding result in experiment [1], in experiment [2] and in experiment [4] was “binds” each time.

B2: Ing2 (protein, UniProt Q9ESK4 1-281)
chain: MLGQQQQQQLYSSAALLTGERSRLLSCYVQDYLECVESLPHDMQRNVSVLRELDNKYQETLKEIDDVYEKYKKEDDSNQKKRLQQHLQRALINSQELGDEKIQIVTQMLELVENRARQMELHSQCFQDPAESERASDKSKMDSSQPERSSRRPRRQRTSESRDLCHMTNGIDDCDDQPPKEKRSKSAKKKKRSKAKQEREASPVEFAIDPNEPTYCLCNQVSYGEMIGCDNEQCPIEWFHFSCVSLTYKPKGKWYCPKCRGDNEKTMDKSTEKTKKERRAR
In the case of B2, the binding entry in experiment [5] is given as “binds”.
